Assay results: the supplement of paper PMC10849652
The other results are listed elsewhere or left out.

Sequences of proteins named here, by UniProt entry; tags and fusion partners are left off. A change or cut given only in a name is not applied to a line headed by its entry.
UniProt Q9P2R7: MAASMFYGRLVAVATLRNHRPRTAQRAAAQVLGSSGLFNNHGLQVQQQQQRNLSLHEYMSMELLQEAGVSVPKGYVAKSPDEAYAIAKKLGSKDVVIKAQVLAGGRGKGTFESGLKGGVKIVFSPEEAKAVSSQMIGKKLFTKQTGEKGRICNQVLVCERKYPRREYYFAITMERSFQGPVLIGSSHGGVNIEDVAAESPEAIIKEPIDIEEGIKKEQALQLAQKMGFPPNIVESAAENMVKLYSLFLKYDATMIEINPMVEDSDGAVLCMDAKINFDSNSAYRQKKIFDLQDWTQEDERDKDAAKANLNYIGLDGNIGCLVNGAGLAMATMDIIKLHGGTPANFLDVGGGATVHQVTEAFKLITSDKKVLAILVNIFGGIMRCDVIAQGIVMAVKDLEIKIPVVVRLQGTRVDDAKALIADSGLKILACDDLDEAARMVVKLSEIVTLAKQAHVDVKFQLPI
UniProt Q15750: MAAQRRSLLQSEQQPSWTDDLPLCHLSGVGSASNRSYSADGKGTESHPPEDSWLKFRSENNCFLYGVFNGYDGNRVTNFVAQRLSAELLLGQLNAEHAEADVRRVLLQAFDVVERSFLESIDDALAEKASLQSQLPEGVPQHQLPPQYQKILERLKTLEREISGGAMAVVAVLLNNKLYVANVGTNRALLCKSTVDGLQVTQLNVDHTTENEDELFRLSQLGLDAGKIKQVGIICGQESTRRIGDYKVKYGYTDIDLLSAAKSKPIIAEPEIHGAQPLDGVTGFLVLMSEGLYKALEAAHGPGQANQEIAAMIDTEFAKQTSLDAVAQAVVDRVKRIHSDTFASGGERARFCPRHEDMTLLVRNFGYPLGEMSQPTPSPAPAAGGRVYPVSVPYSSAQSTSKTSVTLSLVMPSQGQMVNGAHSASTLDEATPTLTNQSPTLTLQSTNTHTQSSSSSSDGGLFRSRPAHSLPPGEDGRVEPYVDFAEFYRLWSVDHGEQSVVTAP
UniProt Q13190: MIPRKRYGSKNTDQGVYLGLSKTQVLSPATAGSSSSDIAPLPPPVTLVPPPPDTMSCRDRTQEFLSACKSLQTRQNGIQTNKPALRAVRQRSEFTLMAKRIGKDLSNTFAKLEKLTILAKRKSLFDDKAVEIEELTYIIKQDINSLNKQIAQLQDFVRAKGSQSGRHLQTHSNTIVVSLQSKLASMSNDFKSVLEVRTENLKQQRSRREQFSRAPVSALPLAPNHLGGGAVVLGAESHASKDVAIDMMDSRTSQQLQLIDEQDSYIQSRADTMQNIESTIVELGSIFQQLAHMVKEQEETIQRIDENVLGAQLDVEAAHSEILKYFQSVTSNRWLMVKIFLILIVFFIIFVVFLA
UniProt O43760: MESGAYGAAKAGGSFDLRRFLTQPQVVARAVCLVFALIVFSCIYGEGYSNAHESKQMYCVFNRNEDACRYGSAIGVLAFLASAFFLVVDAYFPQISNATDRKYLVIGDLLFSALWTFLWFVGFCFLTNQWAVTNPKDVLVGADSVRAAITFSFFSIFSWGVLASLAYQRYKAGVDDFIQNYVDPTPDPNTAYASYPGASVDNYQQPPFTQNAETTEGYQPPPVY
UniProt Q93045: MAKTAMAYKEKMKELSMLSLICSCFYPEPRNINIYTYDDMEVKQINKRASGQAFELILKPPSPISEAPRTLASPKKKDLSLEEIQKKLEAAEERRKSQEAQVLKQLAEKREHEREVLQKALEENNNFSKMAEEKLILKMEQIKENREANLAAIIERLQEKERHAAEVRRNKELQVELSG
UniProt Q12962, whole entry, looked up: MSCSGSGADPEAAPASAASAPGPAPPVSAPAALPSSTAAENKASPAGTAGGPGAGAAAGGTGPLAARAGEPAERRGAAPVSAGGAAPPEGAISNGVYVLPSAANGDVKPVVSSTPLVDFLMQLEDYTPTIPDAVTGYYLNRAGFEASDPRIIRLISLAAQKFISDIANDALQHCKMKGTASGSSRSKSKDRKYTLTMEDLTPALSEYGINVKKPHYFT
UniProt Q8NBJ7: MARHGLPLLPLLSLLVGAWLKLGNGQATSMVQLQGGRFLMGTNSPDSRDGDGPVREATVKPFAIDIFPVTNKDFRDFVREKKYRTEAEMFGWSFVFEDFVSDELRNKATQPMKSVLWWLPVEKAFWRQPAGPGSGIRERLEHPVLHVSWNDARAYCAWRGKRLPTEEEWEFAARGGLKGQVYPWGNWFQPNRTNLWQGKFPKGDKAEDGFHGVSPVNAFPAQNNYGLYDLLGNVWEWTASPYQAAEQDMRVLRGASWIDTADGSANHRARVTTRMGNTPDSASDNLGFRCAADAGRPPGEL
UniProt P27105: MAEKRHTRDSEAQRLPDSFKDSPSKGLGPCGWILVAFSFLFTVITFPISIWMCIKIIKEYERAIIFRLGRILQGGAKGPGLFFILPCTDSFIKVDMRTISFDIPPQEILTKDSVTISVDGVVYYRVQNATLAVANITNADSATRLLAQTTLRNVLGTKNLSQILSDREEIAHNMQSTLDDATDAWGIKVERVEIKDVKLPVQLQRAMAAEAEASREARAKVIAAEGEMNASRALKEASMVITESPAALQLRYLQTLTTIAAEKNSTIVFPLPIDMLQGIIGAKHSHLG
UniProt Q15526: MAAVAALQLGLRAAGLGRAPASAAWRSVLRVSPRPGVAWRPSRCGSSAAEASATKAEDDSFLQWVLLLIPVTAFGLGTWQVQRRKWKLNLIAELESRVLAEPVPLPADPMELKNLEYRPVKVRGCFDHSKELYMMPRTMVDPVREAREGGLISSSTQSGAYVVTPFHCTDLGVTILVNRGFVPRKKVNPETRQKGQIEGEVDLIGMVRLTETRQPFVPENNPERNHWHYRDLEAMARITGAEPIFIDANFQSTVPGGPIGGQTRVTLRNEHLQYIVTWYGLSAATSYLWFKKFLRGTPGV
UniProt O60506: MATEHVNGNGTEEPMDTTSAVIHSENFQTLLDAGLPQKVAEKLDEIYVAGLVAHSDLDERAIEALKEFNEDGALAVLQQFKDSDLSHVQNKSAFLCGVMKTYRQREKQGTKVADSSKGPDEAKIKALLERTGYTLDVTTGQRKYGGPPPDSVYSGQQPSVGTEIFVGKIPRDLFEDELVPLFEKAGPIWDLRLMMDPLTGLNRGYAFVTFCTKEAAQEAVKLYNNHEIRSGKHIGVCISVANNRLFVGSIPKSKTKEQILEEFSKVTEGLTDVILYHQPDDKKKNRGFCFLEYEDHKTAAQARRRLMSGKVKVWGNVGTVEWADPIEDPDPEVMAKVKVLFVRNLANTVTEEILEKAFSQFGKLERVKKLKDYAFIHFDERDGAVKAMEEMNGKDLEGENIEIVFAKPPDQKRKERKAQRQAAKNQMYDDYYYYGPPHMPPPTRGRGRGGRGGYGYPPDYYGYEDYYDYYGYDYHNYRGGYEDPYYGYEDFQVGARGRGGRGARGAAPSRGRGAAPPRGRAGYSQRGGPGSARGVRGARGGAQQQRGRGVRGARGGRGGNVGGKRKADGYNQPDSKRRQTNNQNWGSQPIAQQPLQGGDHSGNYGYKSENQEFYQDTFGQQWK
UniProt Q13033: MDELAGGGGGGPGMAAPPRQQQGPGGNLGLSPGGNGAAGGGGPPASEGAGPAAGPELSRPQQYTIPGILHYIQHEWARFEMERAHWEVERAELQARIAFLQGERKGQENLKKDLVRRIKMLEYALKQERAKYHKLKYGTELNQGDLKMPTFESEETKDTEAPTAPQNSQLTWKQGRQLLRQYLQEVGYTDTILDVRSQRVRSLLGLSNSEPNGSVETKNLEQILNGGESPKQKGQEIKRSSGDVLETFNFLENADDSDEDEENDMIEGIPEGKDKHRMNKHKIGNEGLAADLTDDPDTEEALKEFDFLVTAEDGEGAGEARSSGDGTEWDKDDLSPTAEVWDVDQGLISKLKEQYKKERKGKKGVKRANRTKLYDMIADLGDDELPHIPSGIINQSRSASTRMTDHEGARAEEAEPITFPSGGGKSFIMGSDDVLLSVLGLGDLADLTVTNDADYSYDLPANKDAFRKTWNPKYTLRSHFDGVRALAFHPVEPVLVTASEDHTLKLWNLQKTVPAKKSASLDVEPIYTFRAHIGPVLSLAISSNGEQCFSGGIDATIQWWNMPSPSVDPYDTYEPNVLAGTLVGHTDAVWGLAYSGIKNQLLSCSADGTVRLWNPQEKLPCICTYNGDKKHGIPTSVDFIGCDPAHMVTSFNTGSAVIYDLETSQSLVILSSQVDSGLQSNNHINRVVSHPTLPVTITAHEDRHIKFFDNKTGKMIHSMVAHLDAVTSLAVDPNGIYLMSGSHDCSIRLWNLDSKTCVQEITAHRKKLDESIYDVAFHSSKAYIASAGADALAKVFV
UniProt O14662: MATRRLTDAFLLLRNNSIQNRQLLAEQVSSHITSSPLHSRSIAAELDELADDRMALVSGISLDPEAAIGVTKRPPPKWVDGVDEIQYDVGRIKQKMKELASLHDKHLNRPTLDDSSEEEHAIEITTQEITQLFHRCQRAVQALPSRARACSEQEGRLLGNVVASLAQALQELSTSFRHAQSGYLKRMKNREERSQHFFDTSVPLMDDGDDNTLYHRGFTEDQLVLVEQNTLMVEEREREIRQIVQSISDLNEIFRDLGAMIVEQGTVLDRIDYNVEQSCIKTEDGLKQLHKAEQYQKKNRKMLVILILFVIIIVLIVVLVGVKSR
UniProt Q8N1F8: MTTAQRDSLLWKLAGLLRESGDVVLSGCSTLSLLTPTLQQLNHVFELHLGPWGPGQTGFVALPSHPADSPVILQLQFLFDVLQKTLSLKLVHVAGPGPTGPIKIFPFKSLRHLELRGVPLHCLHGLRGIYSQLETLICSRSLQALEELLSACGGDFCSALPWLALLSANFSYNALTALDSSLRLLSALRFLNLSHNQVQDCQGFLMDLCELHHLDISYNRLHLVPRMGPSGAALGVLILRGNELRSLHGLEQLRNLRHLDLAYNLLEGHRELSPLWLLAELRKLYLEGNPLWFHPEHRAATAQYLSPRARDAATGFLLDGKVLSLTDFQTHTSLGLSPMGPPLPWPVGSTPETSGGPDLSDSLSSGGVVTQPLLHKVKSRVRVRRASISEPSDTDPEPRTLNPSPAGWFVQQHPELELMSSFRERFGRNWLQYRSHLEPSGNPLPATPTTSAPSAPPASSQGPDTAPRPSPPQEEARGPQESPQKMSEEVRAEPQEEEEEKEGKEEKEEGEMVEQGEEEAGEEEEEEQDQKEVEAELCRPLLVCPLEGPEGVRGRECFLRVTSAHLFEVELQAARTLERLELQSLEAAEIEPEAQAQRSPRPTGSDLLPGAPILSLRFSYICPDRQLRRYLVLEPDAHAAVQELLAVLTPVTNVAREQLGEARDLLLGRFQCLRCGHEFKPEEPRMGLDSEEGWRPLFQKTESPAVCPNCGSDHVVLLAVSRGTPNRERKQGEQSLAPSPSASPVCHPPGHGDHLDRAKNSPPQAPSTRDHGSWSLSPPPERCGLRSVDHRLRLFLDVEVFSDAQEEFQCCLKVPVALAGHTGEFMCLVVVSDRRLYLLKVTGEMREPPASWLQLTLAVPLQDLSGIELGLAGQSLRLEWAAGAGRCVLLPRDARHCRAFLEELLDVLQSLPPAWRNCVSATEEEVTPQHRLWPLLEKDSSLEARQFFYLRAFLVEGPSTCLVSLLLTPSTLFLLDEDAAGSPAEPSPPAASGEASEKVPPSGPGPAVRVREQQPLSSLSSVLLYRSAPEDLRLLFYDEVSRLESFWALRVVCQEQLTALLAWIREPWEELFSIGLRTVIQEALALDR
UniProt Q15022: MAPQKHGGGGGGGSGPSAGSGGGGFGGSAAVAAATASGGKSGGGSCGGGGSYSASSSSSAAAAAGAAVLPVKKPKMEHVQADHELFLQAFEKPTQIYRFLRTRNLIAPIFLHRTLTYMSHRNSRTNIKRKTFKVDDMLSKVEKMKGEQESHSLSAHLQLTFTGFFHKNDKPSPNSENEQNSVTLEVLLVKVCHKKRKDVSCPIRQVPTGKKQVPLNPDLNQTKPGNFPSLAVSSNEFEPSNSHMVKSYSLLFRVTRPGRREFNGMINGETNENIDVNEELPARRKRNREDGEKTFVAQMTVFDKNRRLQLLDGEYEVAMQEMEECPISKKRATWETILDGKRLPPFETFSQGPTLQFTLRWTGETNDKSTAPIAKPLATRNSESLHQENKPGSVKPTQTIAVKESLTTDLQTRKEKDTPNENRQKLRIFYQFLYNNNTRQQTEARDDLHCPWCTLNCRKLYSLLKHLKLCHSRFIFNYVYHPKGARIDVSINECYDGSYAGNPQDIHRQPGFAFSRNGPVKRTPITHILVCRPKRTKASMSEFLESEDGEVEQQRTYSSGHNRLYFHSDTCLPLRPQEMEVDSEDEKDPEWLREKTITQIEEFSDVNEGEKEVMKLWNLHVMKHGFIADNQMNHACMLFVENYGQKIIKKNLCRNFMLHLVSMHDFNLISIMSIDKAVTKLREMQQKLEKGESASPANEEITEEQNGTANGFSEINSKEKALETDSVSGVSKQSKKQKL
UniProt P55854, whole entry, looked up: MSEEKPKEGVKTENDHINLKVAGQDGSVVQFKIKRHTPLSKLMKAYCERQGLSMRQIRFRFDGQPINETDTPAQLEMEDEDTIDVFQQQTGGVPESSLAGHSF
UniProt Q8NHG7: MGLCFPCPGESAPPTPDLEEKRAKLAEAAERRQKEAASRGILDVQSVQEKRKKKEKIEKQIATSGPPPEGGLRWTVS

compound: Cc1cc(Nc2cc(N3CCN(C)CC3)nc(Sc3ccc(NC(=O)C4CC4)cc3)n2)n[nH]1 [tozasertib]; test: log2 fold change, soluble protein after heating vs DMSO (PISA); higher = thermal stabilisation; K562 lysate, 10 uM; active = over 0.2 and 3.5 SD of the protein, either way, in both replicates (recomputed)
Method in brief: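 Following dounce homogenisation of K562 pellets in PBS pH 7.4 with 1 mM MgCl2, crude extract at 1 mg/mL protein was incubated for 30 min with 10 μM compound. Aliquots were then heated for 3 min over 48°C-58°C and pooled, NP-40 was added to 0.5% at 4°C, and soluble protein was recovered as the supernatant at 21,000xg for 90 min. Channel-sum-equalised TMTpro 16plex LC-MS/MS quantified this protein. Each value, from duplicates, is a log-two fold change in thermal stability relative to solvent controls.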

log2 fold change, inactive:
SUCLA2 (UniProt Q9P2R7) 0.006, TAB1 (UniProt Q15750) 0.003, STX5 (UniProt Q13190) 0, SYNGR2 (UniProt O43760) 0.003, STMN2 isoform 2 (UniProt Q93045) 0.012, TADA1 (UniProt Q96BN2) -0.016, STUB1 (UniProt Q9UNE7) -0.006, TAF10 (UniProt Q12962) 0.004, SUMF2 (UniProt Q8NBJ7) -0.038, STOM (UniProt P27105) 0.02, SURF1 (UniProt Q15526) 0.014, SYNCRIP (UniProt O60506) -0.012, STRN3 (UniProt Q13033) 0.03, STX16 isoform 2 (UniProt O14662) 0.023, STK11IP (UniProt Q8N1F8) -0.014, SUCLG1 (UniProt P53597) 0, STK39 (UniProt Q9UEW8) 0.021, STRAP isoform 2 (UniProt Q9Y3F4) -0.015, SUZ12 (UniProt Q15022) 0.006, SUMO3 isoform 2 (UniProt P55854) -0.057, TACC3 (UniProt Q9Y6A5) -0.007, SYNE2 isoform 2 (UniProt Q8WXH0) -0.003, SVIP (UniProt Q8NHG7) 0.037
